Measurements published in PubChem BioAssay AID1347426 (Functional Genomics Laboratory (NCATS/FGL), 2020).
The whole screen tested about 31,000 sequences, of which about 1,400 (4.5%) were called active.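 How the source made its calls: active means median seed-adjusted z-score above 1 or below -1; inactive means the rest.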 This is one part of the list.

Assay: Novel Modifiers of Survival Motor Neuron (SMN) Protein: Gene Identification via Genome-wide siRNA Screen;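 further: luminescence tracks full-length SMN protein made from the SMN2 reporter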
Details: HEK293T SMN2-luciferase reporter, siRNA knockdown, 72 h; actives lie on both sides
Procedure, shortened: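 Genome-wide siRNA screen (10418 genes, 3 siRNAs each, 1 pmol per well) by reverse transfection in HEK293T cells stably carrying an SMN2-luciferase reporter; luminescence after 72 hours, normalized to negative-control siRNA, log10-transformed, MAD-scored.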

Row | Sequence | median seed-adjusted z-score
1 | GAACUUAGACCAACUUUAATT against COX5A | inactive: -0.348
2 | CGAAAUGACUAUUACCUGATT against CDC20 | inactive: 0.191
3 | CCAACAUCCAAGUAAGCUATT against GRIN3A | inactive: 0.241
4 | AGACCAUGGACAACCAUAUTT against GSTM1 | inactive: -0.55
5 | GGAUGUUGAUAAAUGGUCUTT against PDE1A | inactive: 0
6 | GAAUACUCACUAUUUCCAATT against MMP7 | inactive: 0.0315
7 | GGAUCACCUUUAUAGCUGUTT against MTMR1 | inactive: -0.0204
8 | GGACUGCUGUAAGACUCUATT against NAT10 | inactive: 0
9 | GCAGGUUCCAGAAACGAAUTT against PPP1R15B | inactive: -0.407
10 | GGGUCAUCCGAGAUUCUCATT against DLG5 | inactive: 0.467
11 | CCAUUUGACUUUAUGGAGATT against RRM2 | active: -3.84
12 | CACUGAUUUGAAACCCUAUTT against ZNF404 | inactive: 0.574
13 | CGUCCAUUCCAGCUGGUAATT against RCADH5 | inactive: -0.158
14 | GAAGCAAUGCCUAUACUAUTT against GPR19 | inactive: 0.157
15 | CAUUCAACCUCAUUCUGAUTT against CYP11A1 | inactive: 0.0202
16 | CGCUGAUGGUCAAACGCAATT against HSPA9 | inactive: 0.622
17 | CUUUGACUGUCAUCACUGATT against SLC24A2 | inactive: 0.136
18 | AUAUCAAGGCUGUGCGGAATT against DUS1L | inactive: 0.0698
19 | AGACGGUGGUGUGCAGGAATT against RHOT2 | inactive: 0.263
20 | CCCUCAAUCCAGCACAAAATT against LILRA4 | inactive: 0.109
21 | CCUGAUGUAUUGGACAUUUTT against HPSE | inactive: 0.153
22 | AGGUCUUUCCCAACGAGGATT against UBE2S | inactive: 0.348
23 | CGUGAAAUGUUUGGAUAUATT against NDUFC2 | inactive: -0.0481

Row | Sequence | median seed-adjusted z-score
24 | CAAGAACUGUGCGAUCUUATT against ZAN | inactive: 0.736
25 | UGUACGUCCUGGGAUGAUATT against TNFRSF10C | inactive: 0
26 | CAAGCUCUGAUAUACCGAATT against HIVEP1 | inactive: 0.532
27 | GGCAUUACCGUGUAUAACATT against CHST10 | inactive: 0.115
28 | GUUUGACCUUAGCUAGAAATT against SHOC2 | inactive: -0.403
29 | CCCUCGAUGUGACGCAGAATT against GP9 | inactive: -0.88
30 | CUCUUAGAAGCAAAACGUATT against SYTL5 | inactive: 0.192
31 | GCACCAUGGGCUAAUCAGATT against RPE | inactive: 0.616
32 | GUAUCUGUGAUAUUGAAAATT against LPAR1 | inactive: 0.514
33 | CCGACAUAUCUAUACCUGATT against SCGB2A1 | inactive: 0
34 | GGUUUGAGCUAGUCAUGGATT against CSAD | inactive: -0.0681
35 | GUUGGAUGAUUGACUCUGATT against ERBB2 | inactive: 0.158
36 | GCAAAUACGUGUAGACCUATT against EXOSC9 | inactive: -0.00796
37 | UGUUAAGCUUCAUCAGUAUTT against MRGPRX1 | inactive: -0.188
38 | GGAUAUCAAUCGAGUACAATT against PIK3R3 | active: -1.88
39 | GAACUGCACGUGUACAACATT against HCFC1 | active: 1.47
40 | CCAUCGUUCUGGGAAUUCUTT against CD6 | inactive: -0.33
41 | CACUUAUGCUGCGAGCUGATT against OBSCN | inactive: -0.798
42 | CGCCCUUCUCAGGAAUCUATT against SLC25A38 | inactive: 0
43 | GCUCGAGGCAAGACCUAUATT against PFKFB1 | inactive: -0.561
44 | GCUCCUCUCAGGUUACCUUTT against TBC1D22A | inactive: -0.00192
45 | GGACAAAUUUUGGAGAGAATT against COG2 | inactive: 0.791
46 | GGAAUUAGACCUAAAUGAATT against RNF148 | inactive: 0.552

A different layout for some results above.
Row	Sequence	median seed-adjusted z-score
32	GUAUCUGUGAUAUUGAAAATT against LPAR1	inactive: 0.514
33	CCGACAUAUCUAUACCUGATT against SCGB2A1	inactive: 0
34	GGUUUGAGCUAGUCAUGGATT against CSAD	inactive: -0.0681
35	GUUGGAUGAUUGACUCUGATT against ERBB2	inactive: 0.158
36	GCAAAUACGUGUAGACCUATT against EXOSC9	inactive: -0.00796
37	UGUUAAGCUUCAUCAGUAUTT against MRGPRX1	inactive: -0.188
38	GGAUAUCAAUCGAGUACAATT against PIK3R3	active: -1.88
39	GAACUGCACGUGUACAACATT against HCFC1	active: 1.47
40	CCAUCGUUCUGGGAAUUCUTT against CD6	inactive: -0.33
41	CACUUAUGCUGCGAGCUGATT against OBSCN	inactive: -0.798
42	CGCCCUUCUCAGGAAUCUATT against SLC25A38	inactive: 0
43	GCUCGAGGCAAGACCUAUATT against PFKFB1	inactive: -0.561
44	GCUCCUCUCAGGUUACCUUTT against TBC1D22A	inactive: -0.00192
45	GGACAAAUUUUGGAGAGAATT against COG2	inactive: 0.791

More records

Row | Sequence | median seed-adjusted z-score
47 | GGACCUUCCCAGUACUAGUTT against CDKN1C | inactive: -0.0497
48 | CUACCUCAGUGACAGUCAATT against SDK2 | inactive: 0.908
49 | GGACUUUCAUUAAUCACGUTT against ATP8B4 | inactive: -0.00244
50 | CCACUACUCACAAGACUCUTT against SHMT2 | inactive: -0.0453
51 | GGAAAACUCGAAAGAGUAATT against HNRNPR | inactive: 0.308
52 | CCAUGACAUCUCUACCGAATT against RFFL | inactive: -0.437
53 | GGUCUUUCCCGGUGCUAUATT against ZNF697 | inactive: 0.0503
54 | GCUCUGAUCAUUGAUCCAATT against BRPF1 | inactive: 0
55 | GUCUAAGAGAAUACAAUGATT against MNAT1 | inactive: -0.335
56 | GCAUCGAAGUGGUGGAAGATT against RNF123 | inactive: 0
57 | CCCUGAAUAUACACGAGAATT against PITPNA | inactive: -0.225
58 | GCAUCCUAGUCUCUAUCAUTT against LTC4S | inactive: 0
59 | CUGAUUUGAUUGAAACGUATT against SCN9A | inactive: -0.581
60 | CAAUUUCACCAACAUGUUATT against CS | inactive: -0.419
61 | GAAUGAAAUCCGAACAGUUTT against AK1 | inactive: -0.0471
62 | GAGAUGAUUUGCACUAUAATT against ZNF45 | inactive: 0.172
63 | GAAACUCCAUGGAAACAAATT against SPOCK2 | inactive: 0.967
64 | GGACUCUUCUUUAGCUUUATT against TSPAN31 | active: -1.13
65 | GAUCCUUCAUUAUGCAACATT against OSBPL7 | inactive: 0
66 | GCCUGUUCUUUAUCAUGCUTT against SLC6A12 | inactive: -0.708
67 | CCAUCGACCUCGUCAUUGATT against MEIS2 | inactive: 0.475
68 | GAACUUAGAUGUCAGUGCATT against IL8 | inactive: 0.0521
69 | GGAGAUAGCUUUGCCUAUATT against RBM15B | inactive: -0.183
